The record followed here is PMC4635203.

No constants are given. Whether binding was seen depends on the method and setting. Binding can be weak; no strength is given.

For the experiment, the target named is LUZ24 gp4 (yeast two-hybrid bait) (Pseudomonas aeruginosa phage LUZ24). The experiment in a line: two-hybrid; Gal4p-based screen in S. cerevisiae AH109; phage proteins as bait (pGBT9) against a random genomic fragment prey library of P. aeruginosa PAO1; HIS3, ADE2 and MEL1 reporters; reproduced in an independent experiment with fresh yeast cells.

B1: MvaT (PA4315) prey fragment, amino acids 1-80 (domain or fragment, UniProt Q9HW86 1-80)
chain: MSLINEYRATEEAIKELQERLKSLEQDDKLKKELEFEEKLRTLMGTYQKSLRDVISLLDPDAKIGKSTRTAKAPAGKRAR
Take B1: the binding result is “binds”.
